Assays:
HepG2 cells [1] = assay: Mitotoxicity, XTT viability in glucose vs galactose medium; conditions: Homo sapiens, HepG2, 24 h
Protocol: (A) Hepatotoxicity provoked by compound 4 was assessed after 72 h incubation of HepG2 cells in low glucose medium (5 mM) in the presence of compound 4 (0.25–100 μM). (B) Mitochondrial toxicity was determined after 24 h incubation of HepG2 cells in either high glucose medium (25 mM) or galactose medium (10 mM) in the presence of compound 4 (2.5–150 μM). Cell viabilities were recorded in triplicates in three independent experiments and expressed as percentage of vehicle control ± SD and IC50 values were determined by GraphPad Prism software using following equation: Y = Bottom + (Top–Bottom)/(1 + 10ˆ((LogIC50-X)^∗HillSlope)), where IC50 is the concentration of compound 4 that inhibits cell viability half way between Bottom and Top plateaus, X is compound 4 concentration and HillSlope describes the steepness of the family of curves. […] (C) Concentration-dependent effect on ROS level. HepG2 cells were treated with compound 4 (0.25–100 μM) for 72 h, and then the intracellular level of total ROS in relative fluorescence units (RFU) was detected. […]
The cytotoxicity of the tested compounds was assessed with use of XTT cell proliferation kit II (Roche Diagnostics GmbH, Mannheim, Germany) according to the manufacturer’s instructions. […] Mitochondrial toxicity was assessed in HepG2 cells using glucose and galactose conditioned media and XTT assay as a read out for cell viability. […]

HepG2 cells [2] = assay: Hepatotoxicity, XTT viability after 72 h; assay type: cell-based; conditions: Homo sapiens, HepG2, 5.5 mM glucose
Protocol: Then, the cell viability (XTT assay) and reactive oxygen species (ROS) induction were evaluated.
(A) Hepatotoxicity provoked by compound 4 was assessed after 72 h incubation of HepG2 cells in low glucose medium (5 mM) in the presence of compound 4 (0.25–100 μM). (B) Mitochondrial toxicity was determined after 24 h incubation of HepG2 cells in either high glucose medium (25 mM) or galactose medium (10 mM) in the presence of compound 4 (2.5–150 μM). Cell viabilities were recorded in triplicates in three independent experiments and expressed as percentage of vehicle control ± SD and IC50 values were determined by GraphPad Prism software using following equation: Y = Bottom + (Top–Bottom)/(1 + 10ˆ((LogIC50-X)^∗HillSlope)), where IC50 is the concentration of compound 4 that inhibits cell viability half way between Bottom and Top plateaus, X is compound 4 concentration and HillSlope describes the steepness of the family of curves. […] HepG2 cells were treated with compound 4 (0.25–100 μM) for 72 h, and then the intracellular level of total ROS in relative fluorescence units (RFU) was detected. […]
The cytotoxicity of the tested compounds was assessed with use of XTT cell proliferation kit II (Roche Diagnostics GmbH, Mannheim, Germany) according to the manufacturer’s instructions. […] The XTT absorbance was recorded at 495 nm after 1 h incubation with the dye. […]

SMILES: CCCCc1oc2ccccc2c1C(=O)c1cc(I)c(OCCN(CC)CC)c(I)c1 [Amiodarone, amiodarone, reference compound]
- IC50 (HepG2 cells [1]; read-out: Mitotoxicity IC50, 10 mM galactose): 23 ± 5 µM
- IC50 (HepG2 cells [1]; read-out: Mitotoxicity IC50, 25 mM glucose): 63 ± 9 µM
- IC50 (HepG2 cells [2]): 4.9 ± 0.2 µM

Reference: PMC6240685, “Strong Inhibitory Effect, Low Cytotoxicity and High Plasma Stability of Steroidal Inhibitors of N-Methyl-D-Aspartate Receptors With C-3 Amide Structural Motif” (Frontiers in Pharmacology, 2018)
